Data from PubChem BioAssay AID1347076 (National Center for Advancing Translational Sciences (NCATS), 2019).
Hit rate of the full screen: of about 400,000 compounds, about 13,000 (3.2%) were called active. Inconclusive results, whose numbers are uncertain, are shown with a selection of clear calls. Calls follow the shape of the dose curve; as a rule, active = well fitted cell-killing curve with a large enough effect; inconclusive = small, poorly fitted or top-dose-only effect, or effect the other way; inactive = flat fitted curve, though single readings scatter. A potency beside an inconclusive call is a rough fit, not a confirmed value.

Assay: qHTS assay for MDR1-selective chemotherapeutics: Primary screen using the drug-selected MDR subline cells KB-V1; also: nearly all actives have a fitted effect of over 60% in size
Settings: KB-V1 MDR cells viability, CellTiter-Glo, 72 h; activity change, negative = cytotoxicity: at 46.1 µM (top of the series)
Method in brief: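 In this primary screen, KB-V1 cells overexpressing P-gp are incubated with library compounds (lowest to highest concentration) for 72 h at 37 degrees C before a luminescent ATP viability read.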
% is scaled to controls: 0 for no effect and ±100 for the full control effect; potency is read from the fitted curve at half-maximal effect.

Row | SMILES | Potency | activity change, negative = cytotoxicity
1 | Cc1cccc(C(=O)Nc2nnc(-c3ccco3)o2)c1 | inconclusive: 4.61 µM [cytotoxic, partial curve] | 
2 | CCOc1ccc(S(=O)(=O)N(CC)CC(=O)N2CCOCC2)cc1C | inactive | 
3 | NS(=O)(=O)c1ccc(Nc2nc(-c3ccccc3)cs2)cc1 | inconclusive: 20.6 µM [cytotoxic, single point] | 
4 | COCCNc1cc(C)nc2cc(-c3ccc(C)cc3)nn12 | inconclusive: 7.31 µM [cytotoxic, partial curve] | 
5 | Cn1c(SCC(=O)N2CCCC2=O)nc2ccccc21 | inconclusive: 29.1 µM [rising, single point] | 
6 | O=C(NCc1cccnc1)C1c2ccccc2C(=O)N1C1CCCCCC1 (stereo unspecified) | active: 18.4 µM | 
7 | CCCCCCCCN1C(=O)[C@H](CC(=O)NCc2cccs2)C[C@@]2(C(=O)OC)CCCCC=C12 | active: 20.6 µM | 
8 | COc1ccc(/C=C(\C#N)C(=O)OCC(=O)NCc2ccccc2)cc1 | inconclusive: 16.4 µM [rising, partial curve, poor fit] | 
9 | Cc1ccc2c(=O)c(C(=O)NCc3cccs3)c[nH]c2c1 | inconclusive: 20.6 µM [cytotoxic, partial curve, poor fit] | 
10 | CN(Cc1c(C(=O)N/N=C/c2ccc(O)cc2)nnn1-c1nonc1N)c1ccccc1 |  | inconclusive: 30.2%
11 | CC(Nc1nc(-c2ccccc2F)nc2ccccc12)c1ccccc1 (stereo unspecified) | inactive | 
12 | O=C(/C=C/c1ccccc1)C1C(=O)c2ccccc2C1=O | active: 3.66 µM | 
13 | C=C1CCC[C@]2(C)C[C@H]3OC(=O)C(CNC(C)(CO)CO)[C@H]3CC12 (stereo partly specified) | inconclusive: 20.6 µM [cytotoxic, single point] | 
14 | COc1ccccc1N(C1=NCCCS1)S(=O)(=O)c1ccc(C(C)(C)C)cc1 | active: 23.1 µM | 
15 | O=C(CNS(=O)(=O)Cc1ccccc1)NNc1ccccc1 | inactive | 
16 | O=C(COC(=O)c1c2c(nc3ccccc13)/C(=C/c1ccco1)CC2)NC1CCCC1 | active: 16.4 µM | 
17 | CCOc1ccccc1NC(=O)Nc1cc2c(cc1N1CCCCC1)n(CC)c(=O)n2CC | inconclusive: 29.1 µM [cytotoxic, single point] | 
18 | C/C(=N\N=C(N)N)c1ccc(C)c(C)c1 | inconclusive: 18.4 µM [cytotoxic, partial curve] | 
19 | CC(=O)Oc1ccc2ccccc2c1C(NC(=O)Cc1ccccc1)c1ccc(Cl)cc1 (stereo unspecified) | inconclusive: 16.4 µM [cytotoxic, single point] | 
20 | O=C1CC(c2ccc(F)cc2)c2c(c3ccccc3[nH]c2=O)O1 (stereo unspecified) | inactive | 
21 | COc1ccc(C(=O)NCCC(=O)N2CCC3(CC2)NCCc2[nH]cnc23)cc1 | inactive | 
22 | COc1ccc(-c2cc(N)n(S(=O)(=O)c3ccc(C)cc3)n2)c(OC)c1 | inconclusive: 29.1 µM [cytotoxic, single point] | 
23 | COc1cc(OC)cc(-c2nc3ccccc3c(=O)n2OC(=O)c2ccc(C)c(C)c2)c1 | inconclusive: 29.1 µM [cytotoxic, single point] | 
24 | CC(Sc1nc(-c2ccccc2)cc(C(F)(F)F)n1)C(=O)N1CCCC1 (stereo unspecified) | inconclusive: 0.651 µM [cytotoxic, full curve, poor fit] | 

Arranged by length of the SMILES (smallest number first): some entries from above.
Row | SMILES | Potency | activity change, negative = cytotoxicity
15 | O=C(CNS(=O)(=O)Cc1ccccc1)NNc1ccccc1 | inactive | 
8 | COc1ccc(/C=C(\C#N)C(=O)OCC(=O)NCc2ccccc2)cc1 | inconclusive: 16.4 µM [rising, partial curve, poor fit] | 
7 | CCCCCCCCN1C(=O)[C@H](CC(=O)NCc2cccs2)C[C@@]2(C(=O)OC)CCCCC=C12 | active: 20.6 µM | 

(list continues)

Row | SMILES | Potency | activity change, negative = cytotoxicity
25 | Cc1c(C)c2c(OCC(=O)Nc3cccnc3)cc3c(c2oc1=O)CCC(C)(C)O3 | inactive | 
26 | CCOc1ccccc1CNCc1c(C(=O)O)n(Cc2ccc(F)cc2)c2cc(C)ccc12 | inconclusive: 23.1 µM [rising, partial curve, poor fit] | 
27 | CCOc1ccc(Oc2ccc(C(F)(F)F)cc2NC(=O)C2=COCCO2)cc1 | inactive | 
28 | Cc1csc(NC(=O)CSc2nncc(=O)n2N)n1 | inconclusive: 2.91 µM [cytotoxic, partial curve, poor fit] | 
29 | Cc1cc(C)c(C)c(S(=O)(=O)ON2C(=O)c3ccccc3C2=O)c1C | inactive | 
30 | O=C(NCCN1CCOCC1)c1ccc2c(c1)N(Cc1ccc(F)cc1)C(=O)CS2 | inconclusive: 20.6 µM [cytotoxic, partial curve, poor fit] | 
31 | CCN(CC)C(=O)CSc1nnc2nnc3cc(C)ccc3n12 | active: 20.6 µM | 
32 | CC1=C(C(=O)N(C)C)C(c2ccc(N3CCOCC3)cc2)NC(=O)N1 (stereo unspecified) | inactive | 
33 | CCOc1ccc(-n2c(SCc3ccc(C(=O)OC)o3)nc3c(c2=O)SCC3)cc1 | inconclusive: 29.1 µM [cytotoxic, single point] | 
34 | COc1cccc2c1OC1(C)CC2NC(=O)N1c1cccc(C(=O)N2CCN(c3ccccc3)CC2)c1 (stereo unspecified) | inactive | 
35 | CCS(=O)(=O)Nc1ccc(Cc2ccc(NS(=O)(=O)CC)cc2)cc1 | inactive | 
36 | CCN(CC)c1ccc2cc(-c3nc(-c4cc5ccccc5oc4=O)cs3)c(=O)oc2c1 | inactive | 
37 | CC(c1ccco1)N(C(=O)c1ccccc1NS(=O)(=O)c1ccc(Cl)cc1)c1ccccn1 (stereo unspecified) | inconclusive: 29.1 µM [cytotoxic, single point] | 
38 | O=S(=O)(c1ccc(Cl)cc1)N1CCN(c2ncccn2)CC1 | inconclusive: 23.1 µM [cytotoxic, partial curve] | 
39 | O=C(COC(=O)[C@@H]1CC(O)CN1S(=O)(=O)c1ccc2c(c1)OCCO2)NCc1ccc(F)cc1 (stereo partly specified) | inconclusive: 29.1 µM [rising, single point] | 
40 | COCCOC(=O)c1c(C)oc2ccc(OS(C)(=O)=O)cc12 | inconclusive: 20.6 µM [cytotoxic, single point] | 
41 | CCc1cccc(CC)c1NC(=O)COC(=O)C1(c2ccc(Cl)cc2)CCCC1 | active: 4.61 µM | 
42 | CCc1nnc(NC(=O)c2ccc(Cl)c(S(=O)(=O)N3CCc4ccccc43)c2)s1 | active: 13 µM | 
43 | COC(=O)C1C(=O)c2c([nH]c(C(=O)OC3CCCC3)c2C)CC1C (stereo unspecified) | inconclusive: 16.4 µM [cytotoxic, partial curve] | 
44 | Cc1ccc(-c2nc3n(n2)Cc2ccccc2-3)cc1 | inconclusive: 16.4 µM [cytotoxic, single point] | 
45 | C=CCNC(=O)c1ccc2c3n(nc2c1)-c1ccccc1CO3 | inactive | 
46 | COc1ccc(N2C(=O)/C(=C\c3ccco3)N=C2SCC(=O)NC(C)(C)C)cc1Cl | inconclusive: 10.3 µM [cytotoxic, partial curve] | 
47 | COc1cccc(-c2csc(N3CCN(C(=O)Nc4ccc(Cl)cc4)CC3)n2)c1 | inactive | 
48 | O=C(Nc1ccc(F)cc1)N1CCN(C(=O)C2CCCO2)CC1 (stereo unspecified) | inconclusive: 1.84 µM [rising, full curve, poor fit] | 

Row | SMILES | Potency | activity change, negative = cytotoxicity
49 | Cc1ccc(NC(=O)CSc2nc3ccc(NC(=O)COc4ccc(C)cc4)cc3s2)cc1 | inconclusive: 18.4 µM [cytotoxic, single point] | 
50 | CN(CCOc1ccc(Cl)cc1)C(=O)CN1C(=O)NC2(CCCCC2)C1=O | inconclusive: 29.1 µM [cytotoxic, single point] | 
51 | Cc1ccc(NC(=O)c2c(O)c3ccccc3n(C)c2=O)nc1 | inconclusive: 3.66 µM [cytotoxic, partial curve, poor fit] | 
52 | CS(=O)(=O)N(CC(=O)Nc1ccccc1C(=O)NCc1ccco1)c1ccccc1F | inconclusive: 10.3 µM [cytotoxic, partial curve, poor fit] | 
53 | O=C1CCCCC1(CCc1ccncc1)CCc1ccncc1 | inconclusive: 23.1 µM [cytotoxic, single point] | 
54 | CCCOC(=O)/C=C/c1c(C)[nH]c(=O)[nH]c1=O | inconclusive: 2.91 µM [cytotoxic, full curve, poor fit] | 
55 | CCC(=O)N(CCC(c1ccco1)c1ccccc1OC)Cc1cccs1 (stereo unspecified) | inconclusive: 20 µM [cytotoxic, single point] | 
56 | O=C(/C(N=Nc1cccc(C(F)(F)F)c1)=C(/O)c1cccs1)C(F)(F)F | inconclusive: 18.4 µM [cytotoxic, single point] | 
57 | O=C(CN1CCC(n2nnc3cc(C(F)(F)F)ccc32)CC1)NNC(=O)c1ccco1 | inconclusive: 29.1 µM [cytotoxic, single point] | 
58 | CSc1ccccc1OCc1cc(C(=O)NCc2cccc(C)n2)no1 | inactive | 
59 | Cc1nc2c(-c3ccccc3)c(C)nn2c(C)c1CCC(=O)Nc1ccccc1F | inconclusive: 14.6 µM [cytotoxic, single point] | 
60 | C#CCNC(=O)c1cc2c(Br)ccc(Br)c2nc1N | inactive | 
61 | COc1ccccc1NC(=S)Nc1ccccn1 | inconclusive: 23.1 µM [cytotoxic, single point] | 
62 | Cc1noc(C)c1COc1cccc(C(=O)Nc2cccnc2)c1 | inconclusive: 23.1 µM [cytotoxic, single point] | 
63 | CCn1c(SCC(=O)Nc2nc(C)c(C)s2)nc2cccnc21 | inconclusive: 23.1 µM [cytotoxic, partial curve, poor fit] | 
64 | O=C(NCc1nnc(SCc2ccc(F)cc2)n1-c1ccccc1)C12CC3CC(CC(C3)C1)C2 | active: 13 µM | 
65 | COC(=O)c1ccc(COc2ccc(C=O)cc2OC)o1 | inconclusive: 10.3 µM [rising, partial curve, poor fit] | 
66 | C(=N\Nc1ncnc2sc3c(c12)CCC3)/c1ccncc1 | active: 18.4 µM | 
67 | O=c1c2ccccc2nnn1CCO | inactive | 
68 | O=c1[nH]c(/C(Cl)=C/c2cc(Cl)ccc2O)nc2cc(Cl)ccc12 | active: 14.6 µM | 
69 | O=c1cc(Cl)[nH]n(-c2ccccc2)c1=O | inconclusive: 29.1 µM [rising, single point] | 
70 | O=C(NCc1ccco1)C1CC(c2c(Cl)cccc2Cl)=NO1 (stereo unspecified) | inconclusive: 29.1 µM [cytotoxic, single point] | 
71 | NC(=O)c1ccc(CSc2nc3ccccc3s2)cc1 | inconclusive: 20.6 µM [cytotoxic, single point] | 
